Measured values as given in US20240216525 (published 2024).

Legend:
[1] = general procedure: Fmoc solid-phase peptide synthesis; Rink amide; HATU/DIPEA; bromoacetic acid/diisopropylcarbodiimide (sub-monomer); details: whole synthesis, on initial Fmoc-sarcosine loading
[2] = general procedure: Fmoc solid-phase peptide synthesis; 2-chlorotrityl; HATU/DIPEA; bromoacetic acid/diisopropylcarbodiimide (sub-monomer); details: whole synthesis, on initial Fmoc-sarcosine loading

NH2-Gly-(N3)- PSAR12- CONH2
isolated yield [1]: 37%

NH2-Gly-(N3)- PSAR10- CONH2
isolated yield [1]: 48%

NH2-Gly-(N3)- PSAR10- COOH
isolated yield [2]: 14%

NHFmoc-Gly- (Glu-NHS)- PSAR10-CONH2
isolated yield [1]: 56%
